# According to PMC10111864:
# Amino acid sequences for entries named in this document (tags omitted). A change or cut given only in a name is not applied to a line headed by its entry.
# UniProt Q60598: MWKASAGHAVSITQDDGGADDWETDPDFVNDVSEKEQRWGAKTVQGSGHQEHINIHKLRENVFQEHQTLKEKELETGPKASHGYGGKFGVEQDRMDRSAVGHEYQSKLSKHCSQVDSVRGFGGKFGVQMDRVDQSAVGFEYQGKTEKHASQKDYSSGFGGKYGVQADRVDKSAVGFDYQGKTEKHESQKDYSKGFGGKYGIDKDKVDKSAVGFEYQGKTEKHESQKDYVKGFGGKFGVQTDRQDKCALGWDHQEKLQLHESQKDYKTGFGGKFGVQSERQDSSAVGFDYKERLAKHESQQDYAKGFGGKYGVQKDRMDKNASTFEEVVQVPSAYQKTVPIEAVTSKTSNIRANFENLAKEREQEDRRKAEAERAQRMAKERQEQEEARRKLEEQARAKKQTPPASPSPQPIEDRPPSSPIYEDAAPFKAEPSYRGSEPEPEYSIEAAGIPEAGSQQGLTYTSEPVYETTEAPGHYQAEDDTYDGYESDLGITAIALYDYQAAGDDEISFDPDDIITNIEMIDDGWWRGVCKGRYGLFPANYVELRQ
# UniProt P13020: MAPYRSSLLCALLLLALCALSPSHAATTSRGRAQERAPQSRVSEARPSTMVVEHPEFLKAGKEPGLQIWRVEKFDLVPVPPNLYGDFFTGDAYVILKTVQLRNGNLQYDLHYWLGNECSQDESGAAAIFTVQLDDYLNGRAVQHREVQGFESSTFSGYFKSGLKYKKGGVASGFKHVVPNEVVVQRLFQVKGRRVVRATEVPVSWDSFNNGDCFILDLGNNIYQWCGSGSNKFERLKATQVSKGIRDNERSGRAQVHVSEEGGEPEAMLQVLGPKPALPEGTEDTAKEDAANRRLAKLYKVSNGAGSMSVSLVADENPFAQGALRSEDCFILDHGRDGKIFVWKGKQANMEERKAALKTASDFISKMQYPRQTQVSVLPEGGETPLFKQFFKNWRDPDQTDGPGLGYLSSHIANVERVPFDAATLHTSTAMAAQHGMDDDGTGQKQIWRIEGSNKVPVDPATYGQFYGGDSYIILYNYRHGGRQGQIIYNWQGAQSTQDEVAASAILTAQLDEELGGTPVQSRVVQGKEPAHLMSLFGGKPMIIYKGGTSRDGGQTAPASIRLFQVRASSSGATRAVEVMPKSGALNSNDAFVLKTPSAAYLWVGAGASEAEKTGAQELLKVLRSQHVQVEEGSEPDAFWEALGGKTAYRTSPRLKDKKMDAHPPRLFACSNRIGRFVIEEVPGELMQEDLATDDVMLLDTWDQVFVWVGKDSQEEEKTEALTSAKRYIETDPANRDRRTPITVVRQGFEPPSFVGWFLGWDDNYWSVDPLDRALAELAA
# UniProt P35279: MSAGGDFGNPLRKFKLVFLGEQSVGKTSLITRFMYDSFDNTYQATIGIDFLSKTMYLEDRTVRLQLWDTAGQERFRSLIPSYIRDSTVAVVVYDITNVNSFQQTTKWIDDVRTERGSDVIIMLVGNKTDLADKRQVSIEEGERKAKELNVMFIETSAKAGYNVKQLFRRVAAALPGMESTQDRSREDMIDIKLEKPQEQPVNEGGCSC
# Molecular target: T1, KIF1C (endogenous, untagged) (mouse (endogenous in YUMM1.7)) (UniProt O35071)
# T1 sequence: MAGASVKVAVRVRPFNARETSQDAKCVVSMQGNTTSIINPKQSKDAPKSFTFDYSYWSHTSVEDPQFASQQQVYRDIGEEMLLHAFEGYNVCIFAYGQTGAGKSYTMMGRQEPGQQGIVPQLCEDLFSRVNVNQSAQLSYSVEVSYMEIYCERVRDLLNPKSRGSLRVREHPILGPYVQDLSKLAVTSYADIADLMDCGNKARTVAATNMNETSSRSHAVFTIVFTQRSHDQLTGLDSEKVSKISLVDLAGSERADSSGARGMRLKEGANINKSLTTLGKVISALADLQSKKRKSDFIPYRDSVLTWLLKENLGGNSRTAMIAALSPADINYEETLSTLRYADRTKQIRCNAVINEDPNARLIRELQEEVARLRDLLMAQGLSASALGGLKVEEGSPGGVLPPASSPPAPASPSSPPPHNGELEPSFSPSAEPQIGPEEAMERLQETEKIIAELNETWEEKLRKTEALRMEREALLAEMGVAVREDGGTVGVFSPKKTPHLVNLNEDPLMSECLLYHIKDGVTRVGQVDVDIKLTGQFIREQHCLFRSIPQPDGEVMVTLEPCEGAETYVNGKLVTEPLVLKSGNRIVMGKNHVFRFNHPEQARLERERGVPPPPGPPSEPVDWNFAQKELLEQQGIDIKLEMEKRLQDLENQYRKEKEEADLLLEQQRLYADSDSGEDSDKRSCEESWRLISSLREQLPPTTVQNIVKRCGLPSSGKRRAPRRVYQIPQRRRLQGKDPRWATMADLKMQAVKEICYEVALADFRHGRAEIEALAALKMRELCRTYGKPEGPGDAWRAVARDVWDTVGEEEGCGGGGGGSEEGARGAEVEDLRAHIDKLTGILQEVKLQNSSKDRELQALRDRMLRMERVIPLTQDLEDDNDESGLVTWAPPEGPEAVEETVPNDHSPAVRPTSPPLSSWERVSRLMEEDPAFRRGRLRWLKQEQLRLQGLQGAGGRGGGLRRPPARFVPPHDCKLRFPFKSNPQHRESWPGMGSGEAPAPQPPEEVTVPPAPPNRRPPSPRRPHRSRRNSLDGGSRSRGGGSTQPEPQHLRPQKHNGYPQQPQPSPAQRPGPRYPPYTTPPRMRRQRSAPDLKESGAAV
# Assay: affinity purification with mass spectrometry; IP of endogenous KIF1C with α-KIF1C antibody (Bethyl A301-072A) and protein G Dynabeads from lysates of Kif1c+/+ and Kif1c ΔGA1,2 YUMM1.7 cells, Kif1c LOF cells as negative control; 4.5-5 mg total protein; washes 50 mM Tris pH 7.4, 150 mM NaCl, 0.02% NP-40; hits more than threefold enriched over …
row,binding,Substance
1,binds,CTTN (from UniProt Q60598 1-546)
2,binds,GSN (from UniProt P13020)
3,binds,RAB6A (from UniProt P35279 1-208)
4,binds,TPM1 (from UniProt P58771 1-284)

# Results are given in words; binding and its absence hold for the method and conditions named. Binding seen in cells or lysates may run through a third protein. Here binding means that the protein was enriched with, or labelled near, the bait; the list need not be complete. Where a sequence is shown, tags or fusion partners need not be part of it.
